Values of other authors, collected in publication PMC11718131 (Communications Biology, 2025).

Target: wildtype (WT) CA2
Details: read-out: Ki, potency of inhibition of WT CA2 activity; cited from earlier work

For `CC(=O)Nc1nnc(S(N)(=O)=O)s1` [ACZ, acetazolamide], the Ki is given as 12 nM.
